Laboratory results as given in US20160304970A1, “GENE BIOMARKER TO DIAGNOSE METASTIC LIVER CANCER AND METHODS FOR TARGETING THE SAME” (University of Southern California, priority 2015, published 2016).
Results are given in words; binding and its absence hold for the method and conditions named. Some results given as binding are weak or reduced against the parent protein; the word gives no strength.

By UniProt entry, the sequences of proteins in these tests, tags left out. Residues count along the entry.
UniProt P42227, residues 2-770: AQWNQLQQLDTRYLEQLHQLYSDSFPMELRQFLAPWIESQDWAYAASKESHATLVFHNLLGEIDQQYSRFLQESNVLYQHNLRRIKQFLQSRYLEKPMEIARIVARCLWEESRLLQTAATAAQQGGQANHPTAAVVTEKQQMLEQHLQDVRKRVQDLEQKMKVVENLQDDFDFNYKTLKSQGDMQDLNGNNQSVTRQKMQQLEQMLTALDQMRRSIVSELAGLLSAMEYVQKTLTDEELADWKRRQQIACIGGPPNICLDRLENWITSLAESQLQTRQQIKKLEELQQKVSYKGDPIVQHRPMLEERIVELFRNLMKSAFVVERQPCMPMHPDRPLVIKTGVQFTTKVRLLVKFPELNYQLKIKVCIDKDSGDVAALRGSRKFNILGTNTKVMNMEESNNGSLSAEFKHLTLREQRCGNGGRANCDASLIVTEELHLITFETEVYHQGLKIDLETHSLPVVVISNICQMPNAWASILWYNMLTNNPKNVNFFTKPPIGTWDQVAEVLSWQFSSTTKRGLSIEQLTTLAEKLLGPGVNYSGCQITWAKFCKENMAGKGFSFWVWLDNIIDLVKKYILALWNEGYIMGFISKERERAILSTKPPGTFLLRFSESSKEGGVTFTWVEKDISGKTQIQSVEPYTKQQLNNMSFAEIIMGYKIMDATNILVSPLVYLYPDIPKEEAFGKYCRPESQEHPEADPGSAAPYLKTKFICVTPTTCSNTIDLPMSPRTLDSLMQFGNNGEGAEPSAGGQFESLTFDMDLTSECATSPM

How the values were obtained:
pSTAT3 (mouse) [1] = biological target: pSTAT3 (mouse) (UniProt P42227); test: sequential-ChIP-qPCR analysis (FIG. 22E)
pSTAT3 (mouse) [2] = biological target: pSTAT3 (mouse) (UniProt P42227); test: sequential-ChIP analysis on the Twist1 promoter in TICs
pSTAT3 (mouse) [3] = biological target: pSTAT3 (mouse) (UniProt P42227); test: sequential-ChIP-qPCR on the Twist1 promoter in TICs (FIG. 22E)
pSTAT3 (mouse) [4] = biological target: pSTAT3 (mouse) (UniProt P42227); test: summary of the sequential-ChIP result in TICs from NS5A Tg mice

Measured: binding

B1: NANOG (protein, mouse, UniProt Q80Z64 1-305, looked up)
chain: MSVGLPGPHSLPSSEEASNSGNASSMPAVFHPENYSCLQGSATEMLCTEAASPRPSSEDLPLQGSPDSSTSPKQKLSSPEADKGPEEEENKVLARKQKMRTVFSQAQLCALKDRFQKQKYLSLQQMQELSSILNLSYKQVKTWFQNQRMKCKRWQKNQWLKTSNGLIQKGSAPVEYPSIHCSYPQGYLVNASGSLSMWGSQTWTNPTWSSQTWTNPTWNNQTWTNPTWSSQAWTAQSWNGQPWNAAPLHNFGEDFLQPYVQLQQNFSASDLEVNLEATRESHAHFSTPQALELFLNYSVTPPGEI
binds: all assays above
